{"sequences": {"note": "By UniProt entry, the sequences of proteins in these tests, tags left out. Where a name states a change or a piece, a line headed by the entry shows the natural chain unless it says otherwise.", "UniProt Q6W5P4": "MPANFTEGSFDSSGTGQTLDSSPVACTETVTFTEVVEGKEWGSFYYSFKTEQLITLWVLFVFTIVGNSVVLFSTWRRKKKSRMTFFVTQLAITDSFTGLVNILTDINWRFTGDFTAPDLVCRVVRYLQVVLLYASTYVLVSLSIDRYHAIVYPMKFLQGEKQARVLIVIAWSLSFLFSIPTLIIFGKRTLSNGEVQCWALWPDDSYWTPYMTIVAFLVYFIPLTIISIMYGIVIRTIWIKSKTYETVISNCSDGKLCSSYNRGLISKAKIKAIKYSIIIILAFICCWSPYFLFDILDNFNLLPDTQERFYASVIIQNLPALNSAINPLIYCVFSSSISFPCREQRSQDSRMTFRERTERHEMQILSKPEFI"}, "source": "PubChem BioAssay AID2567", "about": "(National Center for Advancing Translational Sciences (NCATS), 2010)", "target": "Neuropeptide S receptor (Homo sapiens) (UniProt Q6W5P4)", "test": "Confirmation Concentration-Response Assay for Antagonists of the Neuropeptide S Receptor: Calcium Signal Transduction, SAR for Probe", "settings": "CHO-NPSR cells, NPS-induced calcium fluorescence, FDSS; at 19.3 µM (top of the series)", "description": "NIH Chemical Genomics Center [NCGC] NIH Molecular Libraries Probe Production centers Network [MLPCN] MLPCN Grant: X01-DA026210-01 Assay Submitter (PI): Heilig, Markus Alexander NCGC Assay Overview: Neuropeptide S receptor (NPSR), previously known as GPR154, is a recently de-orphanized G protein coupled receptor. Its endogenous ligand is the 20 amino acids peptide Neuropeptide S (NPS). […] NPS and its receptor are found in various tissues. Specifically they are highly expressed in brain areas that have been implicated in modulation of arousal, stress and anxiety. […] This change in intracellular calcium can be detected using a calcium indicator dye on a calcium imaging plate reader system (FDSS).\nNCGC Assay Protocol Summary: A Chinese hamster ovary (CHO) cell line stably expressing the NPS receptor (CHO-NPSR) was obtained from Dr. Heilig lab at NIAAA and maintained in F-12 Kaighn's media (Invitrogen, Carlsbad, CA, 21127) supplemented with 10 % FBS, 100 units/ml penicillin, 100 ug/ml streptomycin and 250 ug/ml geneticin at 37C, 5% CO2 in a humidified atmosphere. […] The assay was performed on a FDSS-7000 kinetic plate reader in 1536-well format. For both agonist (1-220s) and antagonist (221-400s) phases, the maximums of kinetic fluorescence responses were converted separately into text files using the instrument's software data export utility. […]", "note": "Most of the hits are listed elsewhere, so they are rarer here than in the full data. Records with an inconclusive call do not appear. Activity calls are given as the source filed them. Calls follow the shape of the dose curve; as a rule, active = well fitted antagonist curve with a large enough effect in the main read-out, with a control signal flat; inconclusive = small, poorly fitted or top-dose-only effect; inactive = no such curve, though single readings can be large or run the other way."}
{"compound": "CN(C)c1ccc2nc3ccc(=[N+](C)C)cc-3sc2c1", "values": [{"measurement": "activity change, negative = inhibition", "result": "inactive: 7.9%"}]}
